No constants are given. Whether binding was seen depends on the method and setting. Binding seen in cells or lysates may run through a third protein. A yes stands for co-enrichment or nearness to the bait. Other partners may have been found. Where a sequence is shown, tags or fusion partners need not be part of it.
T1: Klotho-EGFP N614Q (mouse) (UniProt O35082)
T1 sequence: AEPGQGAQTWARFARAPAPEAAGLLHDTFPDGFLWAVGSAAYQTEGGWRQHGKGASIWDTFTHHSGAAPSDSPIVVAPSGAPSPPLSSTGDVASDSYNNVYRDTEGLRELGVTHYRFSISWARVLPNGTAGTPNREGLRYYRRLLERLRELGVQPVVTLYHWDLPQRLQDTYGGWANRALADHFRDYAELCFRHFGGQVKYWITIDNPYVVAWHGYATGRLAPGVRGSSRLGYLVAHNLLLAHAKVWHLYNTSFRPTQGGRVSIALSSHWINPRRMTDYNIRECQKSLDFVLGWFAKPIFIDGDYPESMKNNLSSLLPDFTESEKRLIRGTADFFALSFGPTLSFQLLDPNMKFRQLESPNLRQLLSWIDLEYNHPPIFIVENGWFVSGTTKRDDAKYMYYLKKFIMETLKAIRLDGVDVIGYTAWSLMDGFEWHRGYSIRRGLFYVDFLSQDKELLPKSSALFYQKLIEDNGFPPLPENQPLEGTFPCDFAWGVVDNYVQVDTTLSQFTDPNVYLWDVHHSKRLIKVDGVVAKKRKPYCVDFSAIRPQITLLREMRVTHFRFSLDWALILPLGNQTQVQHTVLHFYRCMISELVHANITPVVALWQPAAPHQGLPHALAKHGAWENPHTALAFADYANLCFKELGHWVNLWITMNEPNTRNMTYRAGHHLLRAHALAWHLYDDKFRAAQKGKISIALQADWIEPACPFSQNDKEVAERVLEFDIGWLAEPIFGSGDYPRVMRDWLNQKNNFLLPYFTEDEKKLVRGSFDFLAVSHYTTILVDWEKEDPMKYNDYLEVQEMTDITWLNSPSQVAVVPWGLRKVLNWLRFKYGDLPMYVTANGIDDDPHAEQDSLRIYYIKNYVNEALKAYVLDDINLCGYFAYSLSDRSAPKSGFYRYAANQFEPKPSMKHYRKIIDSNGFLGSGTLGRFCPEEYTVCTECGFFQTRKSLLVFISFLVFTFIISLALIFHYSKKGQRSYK

Amino acid sequences for entries named in this document (tags omitted). Residues count along the entry.
UniProt P30101, residues 25-505: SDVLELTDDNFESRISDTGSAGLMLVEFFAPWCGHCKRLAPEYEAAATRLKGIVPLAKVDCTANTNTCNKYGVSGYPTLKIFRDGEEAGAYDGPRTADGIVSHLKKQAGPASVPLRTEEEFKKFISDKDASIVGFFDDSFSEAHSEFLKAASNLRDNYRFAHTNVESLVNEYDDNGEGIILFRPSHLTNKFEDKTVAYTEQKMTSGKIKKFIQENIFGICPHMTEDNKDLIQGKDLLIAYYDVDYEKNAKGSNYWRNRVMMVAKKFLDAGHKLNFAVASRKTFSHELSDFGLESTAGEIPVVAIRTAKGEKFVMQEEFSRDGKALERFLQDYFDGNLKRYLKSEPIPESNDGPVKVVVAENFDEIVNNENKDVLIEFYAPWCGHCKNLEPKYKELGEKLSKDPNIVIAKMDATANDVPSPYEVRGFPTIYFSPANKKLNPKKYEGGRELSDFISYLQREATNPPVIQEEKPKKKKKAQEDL
UniProt P07237, residues 18-508: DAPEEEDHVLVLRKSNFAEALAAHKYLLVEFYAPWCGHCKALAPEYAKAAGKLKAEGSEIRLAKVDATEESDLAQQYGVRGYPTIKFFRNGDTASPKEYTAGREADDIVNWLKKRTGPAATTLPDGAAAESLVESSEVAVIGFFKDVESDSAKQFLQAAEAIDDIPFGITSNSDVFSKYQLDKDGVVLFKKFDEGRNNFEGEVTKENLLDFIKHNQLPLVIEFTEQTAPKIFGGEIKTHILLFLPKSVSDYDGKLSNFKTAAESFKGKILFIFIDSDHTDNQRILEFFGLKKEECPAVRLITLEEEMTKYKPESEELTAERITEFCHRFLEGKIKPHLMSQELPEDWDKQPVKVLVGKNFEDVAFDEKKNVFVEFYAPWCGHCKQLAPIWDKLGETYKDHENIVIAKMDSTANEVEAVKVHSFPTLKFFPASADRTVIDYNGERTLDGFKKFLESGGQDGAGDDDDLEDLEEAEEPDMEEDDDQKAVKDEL
UniProt P34932: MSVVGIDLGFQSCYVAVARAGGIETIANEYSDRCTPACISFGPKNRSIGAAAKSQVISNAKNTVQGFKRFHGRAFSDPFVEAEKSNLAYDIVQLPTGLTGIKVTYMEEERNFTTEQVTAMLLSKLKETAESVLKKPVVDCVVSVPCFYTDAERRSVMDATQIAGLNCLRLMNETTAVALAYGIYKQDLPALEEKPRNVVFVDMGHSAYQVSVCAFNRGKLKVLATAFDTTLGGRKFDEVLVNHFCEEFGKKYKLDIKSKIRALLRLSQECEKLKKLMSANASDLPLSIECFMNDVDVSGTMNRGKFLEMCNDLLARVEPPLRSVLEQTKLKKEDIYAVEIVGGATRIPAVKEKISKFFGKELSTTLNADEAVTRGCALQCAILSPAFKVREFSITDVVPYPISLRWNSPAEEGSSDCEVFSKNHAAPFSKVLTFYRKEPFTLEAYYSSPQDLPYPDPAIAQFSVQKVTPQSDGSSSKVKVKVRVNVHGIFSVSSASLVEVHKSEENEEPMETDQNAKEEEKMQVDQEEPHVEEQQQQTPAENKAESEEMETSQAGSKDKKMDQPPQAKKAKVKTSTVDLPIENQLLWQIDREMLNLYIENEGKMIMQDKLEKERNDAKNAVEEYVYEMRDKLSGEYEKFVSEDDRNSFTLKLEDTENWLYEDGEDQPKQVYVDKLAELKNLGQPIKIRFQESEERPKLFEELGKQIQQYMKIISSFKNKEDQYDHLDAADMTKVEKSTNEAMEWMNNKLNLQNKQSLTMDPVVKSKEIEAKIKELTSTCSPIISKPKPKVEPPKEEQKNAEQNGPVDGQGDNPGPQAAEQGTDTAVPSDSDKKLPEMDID
UniProt P11021, residues 19-654: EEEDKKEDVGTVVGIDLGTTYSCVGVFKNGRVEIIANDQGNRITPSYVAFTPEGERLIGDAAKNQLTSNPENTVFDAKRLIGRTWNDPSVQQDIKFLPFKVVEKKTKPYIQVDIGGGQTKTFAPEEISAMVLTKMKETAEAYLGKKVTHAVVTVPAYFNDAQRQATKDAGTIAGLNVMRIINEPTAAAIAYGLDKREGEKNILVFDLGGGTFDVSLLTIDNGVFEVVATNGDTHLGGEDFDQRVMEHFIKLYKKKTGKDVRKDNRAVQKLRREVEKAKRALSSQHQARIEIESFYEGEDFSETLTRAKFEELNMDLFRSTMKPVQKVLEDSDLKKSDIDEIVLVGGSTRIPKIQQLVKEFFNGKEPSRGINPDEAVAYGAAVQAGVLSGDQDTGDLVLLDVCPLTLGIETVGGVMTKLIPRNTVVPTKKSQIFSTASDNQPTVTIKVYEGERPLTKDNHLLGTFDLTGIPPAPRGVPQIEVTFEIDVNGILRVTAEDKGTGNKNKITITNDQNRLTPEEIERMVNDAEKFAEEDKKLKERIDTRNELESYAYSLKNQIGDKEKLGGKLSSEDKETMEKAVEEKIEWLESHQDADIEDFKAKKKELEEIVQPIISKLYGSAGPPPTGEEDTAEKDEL

B1: PDIA4 (protein, UniProt P13667 21-645)
chain: VAGAEGPDEDSSNRENAIEDEEEEEEEDDDEEEDDLEVKEENGVLVLNDANFDNFVADKDTVLLEFYAPWCGHCKQFAPEYEKIANILKDKDPPIPVAKIDATSASVLASRFDVSGYPTIKILKKGQAVDYEGSRTQEEIVAKVREVSQPDWTPPPEVTLVLTKENFDEVVNDADIILVEFYAPWCGHCKKLAPEYEKAAKELSKRSPPIPLAKVDATAETDLAKRFDVSGYPTLKIFRKGRPYDYNGPREKYGIVDYMIEQSGPPSKEILTLKQVQEFLKDGDDVIIIGVFKGESDPAYQQYQDAANNLREDYKFHHTFSTEIAKFLKVSQGQLVVMQPEKFQSKYEPRSHMMDVQGSTQDSAIKDFVLKYALPLVGHRKVSNDAKRYTRRPLVVVYYSVDFSFDYRAATQFWRSKVLEVAKDFPEYTFAIADEEDYAGEVKDLGLSESGEDVNAAILDESGKKFAMEPEEFDSDTLREFVTAFKKGKLKPVIKSQPVPKNNKGPVKVVVGKTFDSIVMDPKKDVLIEFYAPWCGHCKQLEPVYNSLAKKYKGQKGLVIAKMDATANDVPSDRYKVEGFPTIYFAPSGDKKNPVKFEGGDRDLEHLSKFIEEHATKLSRTKEEL
B2: MOGS (mannosyl-oligosaccharide glucosidase) (enzyme, UniProt Q13724 1-837)
chain: MARGERRRRAVPAEGVRTAERAARGGPGRRDGRGGGPRSTAGGVALAVVVLSLALGMSGRWVLAWYRARRAVTLHSAPPVLPADSSSPAVAPDLFWGTYRPHVYFGMKTRSPKPLLTGLMWAQQGTTPGTPKLRHTCEQGDGVGPYGWEFHDGLSFGRQHIQDGALRLTTEFVKRPGGQHGGDWSWRVTVEPQDSGTSALPLVSLFFYVVTDGKEVLLPEVGAKGQLKFISGHTSELGDFRFTLLPPTSPGDTAPKYGSYNVFWTSNPGLPLLTEMVKSRLNSWFQHRPPGAPPERYLGLPGSLKWEDRGPSGQGQGQFLIQQVTLKIPISIEFVFESGSAQAGGNQALPRLAGSLLTQALESHAEGFRERFEKTFQLKEKGLSSGEQVLGQAALSGLLGGIGYFYGQGLVLPDIGVEGSEQKVDPALFPPVPLFTAVPSRSFFPRGFLWDEGFHQLVVQRWDPSLTREALGHWLGLLNADGWIGREQILGDEARARVPPEFLVQRAVHANPPTLLLPVAHMLEVGDPDDLAFLRKALPRLHAWFSWLHQSQAGPLPLSYRWRGRDPALPTLLNPKTLPSGLDDYPRASHPSVTERHLDLRCWVALGARVLTRLAEHLGEAEVAAELGPLAASLEAAESLDELHWAPELGVFADFGNHTKAVQLKPRPPQGLVRVVGRPQPQLQYVDALGYVSLFPLLLRLLDPTSSRLGPLLDILADSRHLWSPFGLRSLAASSSFYGQRNSEHDPPYWRGAVWLNVNYLALGALHHYGHLEGPHQARAAKLHGELRANVVGNVWRQYQATGFLWEQYSDRDGRGMGCRPFHGWTSLVLLAMAEDY

target: T1, Klotho-EGFP N614Q (mouse); test: affinity purification with mass spectrometry; GFP-TRAP agarose immunoprecipitation from CHAPSO lysates (150 mM citrate buffer pH 6.4, 2% CHAPSO) of untreated HEK293T cells stably expressing Klotho-EGFP variants or GFP; elution with 200 mM glycine pH 2.5; DIA LC-MS; six biological replicates

binding, binds:
PDIA3 (from UniProt P30101 25-505), P4HB (from UniProt P07237 18-508), CALR (from UniProt P27797 18-417), HSPA4 (from UniProt P34932 1-840), HSPA5 (BiP) (from UniProt P11021 19-654), B1, B2
